These results are taken from PMC6424098.

Protein sequences, listed by entry. Tags and fused reporters are not part of them. Lines headed by an entry give the natural chain unless they say otherwise; changes in a name come on top.
UniProt Q9UBB5: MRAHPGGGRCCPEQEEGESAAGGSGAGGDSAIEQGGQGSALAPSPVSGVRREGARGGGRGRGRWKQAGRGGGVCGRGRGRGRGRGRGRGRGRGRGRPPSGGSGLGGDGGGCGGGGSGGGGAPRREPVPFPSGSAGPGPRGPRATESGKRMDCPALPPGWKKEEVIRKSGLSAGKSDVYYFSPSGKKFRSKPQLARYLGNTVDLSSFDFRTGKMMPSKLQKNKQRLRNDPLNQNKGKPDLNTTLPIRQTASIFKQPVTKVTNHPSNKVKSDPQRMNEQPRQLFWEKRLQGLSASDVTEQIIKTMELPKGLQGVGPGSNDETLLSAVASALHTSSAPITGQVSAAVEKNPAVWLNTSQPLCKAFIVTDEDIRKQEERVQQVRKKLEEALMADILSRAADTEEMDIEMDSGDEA
UniProt O95983: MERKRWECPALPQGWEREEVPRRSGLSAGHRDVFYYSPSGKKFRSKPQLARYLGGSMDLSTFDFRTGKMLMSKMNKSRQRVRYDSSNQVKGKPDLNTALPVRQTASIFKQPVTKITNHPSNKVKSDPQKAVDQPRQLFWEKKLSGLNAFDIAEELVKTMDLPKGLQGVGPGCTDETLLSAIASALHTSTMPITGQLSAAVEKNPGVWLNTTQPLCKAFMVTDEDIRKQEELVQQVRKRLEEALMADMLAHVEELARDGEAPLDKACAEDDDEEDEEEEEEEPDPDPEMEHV
UniProt Q04726: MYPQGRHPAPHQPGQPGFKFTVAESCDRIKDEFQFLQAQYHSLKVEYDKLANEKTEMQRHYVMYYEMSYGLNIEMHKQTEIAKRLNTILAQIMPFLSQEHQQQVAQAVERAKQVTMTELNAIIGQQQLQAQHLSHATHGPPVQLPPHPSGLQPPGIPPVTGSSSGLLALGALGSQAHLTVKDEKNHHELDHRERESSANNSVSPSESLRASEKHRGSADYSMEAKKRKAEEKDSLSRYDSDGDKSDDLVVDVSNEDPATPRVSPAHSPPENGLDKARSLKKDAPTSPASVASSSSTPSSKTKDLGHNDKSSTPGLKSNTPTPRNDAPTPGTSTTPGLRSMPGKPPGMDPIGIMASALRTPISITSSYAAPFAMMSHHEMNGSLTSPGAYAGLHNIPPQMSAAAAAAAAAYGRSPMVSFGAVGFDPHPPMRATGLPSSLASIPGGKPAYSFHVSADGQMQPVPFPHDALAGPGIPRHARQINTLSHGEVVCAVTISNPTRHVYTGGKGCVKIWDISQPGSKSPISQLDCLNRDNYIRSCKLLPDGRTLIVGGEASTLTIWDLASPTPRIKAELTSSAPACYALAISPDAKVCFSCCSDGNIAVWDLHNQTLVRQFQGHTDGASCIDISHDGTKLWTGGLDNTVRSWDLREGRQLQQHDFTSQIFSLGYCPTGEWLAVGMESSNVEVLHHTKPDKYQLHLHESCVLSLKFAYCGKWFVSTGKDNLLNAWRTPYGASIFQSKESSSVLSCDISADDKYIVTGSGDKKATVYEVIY
UniProt Q9NPF5: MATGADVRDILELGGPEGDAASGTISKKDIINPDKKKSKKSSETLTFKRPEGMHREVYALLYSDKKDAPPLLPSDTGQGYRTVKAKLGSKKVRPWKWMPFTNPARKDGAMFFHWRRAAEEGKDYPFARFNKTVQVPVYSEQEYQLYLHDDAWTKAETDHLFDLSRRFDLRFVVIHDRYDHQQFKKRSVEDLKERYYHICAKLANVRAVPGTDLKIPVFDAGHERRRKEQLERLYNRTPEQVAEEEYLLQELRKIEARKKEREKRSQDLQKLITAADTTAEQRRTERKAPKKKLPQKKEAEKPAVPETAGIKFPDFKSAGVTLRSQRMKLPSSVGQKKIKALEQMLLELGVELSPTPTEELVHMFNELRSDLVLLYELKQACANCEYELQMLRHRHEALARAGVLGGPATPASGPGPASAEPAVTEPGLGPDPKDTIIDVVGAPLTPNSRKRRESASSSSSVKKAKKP
UniProt Q9Y5B9: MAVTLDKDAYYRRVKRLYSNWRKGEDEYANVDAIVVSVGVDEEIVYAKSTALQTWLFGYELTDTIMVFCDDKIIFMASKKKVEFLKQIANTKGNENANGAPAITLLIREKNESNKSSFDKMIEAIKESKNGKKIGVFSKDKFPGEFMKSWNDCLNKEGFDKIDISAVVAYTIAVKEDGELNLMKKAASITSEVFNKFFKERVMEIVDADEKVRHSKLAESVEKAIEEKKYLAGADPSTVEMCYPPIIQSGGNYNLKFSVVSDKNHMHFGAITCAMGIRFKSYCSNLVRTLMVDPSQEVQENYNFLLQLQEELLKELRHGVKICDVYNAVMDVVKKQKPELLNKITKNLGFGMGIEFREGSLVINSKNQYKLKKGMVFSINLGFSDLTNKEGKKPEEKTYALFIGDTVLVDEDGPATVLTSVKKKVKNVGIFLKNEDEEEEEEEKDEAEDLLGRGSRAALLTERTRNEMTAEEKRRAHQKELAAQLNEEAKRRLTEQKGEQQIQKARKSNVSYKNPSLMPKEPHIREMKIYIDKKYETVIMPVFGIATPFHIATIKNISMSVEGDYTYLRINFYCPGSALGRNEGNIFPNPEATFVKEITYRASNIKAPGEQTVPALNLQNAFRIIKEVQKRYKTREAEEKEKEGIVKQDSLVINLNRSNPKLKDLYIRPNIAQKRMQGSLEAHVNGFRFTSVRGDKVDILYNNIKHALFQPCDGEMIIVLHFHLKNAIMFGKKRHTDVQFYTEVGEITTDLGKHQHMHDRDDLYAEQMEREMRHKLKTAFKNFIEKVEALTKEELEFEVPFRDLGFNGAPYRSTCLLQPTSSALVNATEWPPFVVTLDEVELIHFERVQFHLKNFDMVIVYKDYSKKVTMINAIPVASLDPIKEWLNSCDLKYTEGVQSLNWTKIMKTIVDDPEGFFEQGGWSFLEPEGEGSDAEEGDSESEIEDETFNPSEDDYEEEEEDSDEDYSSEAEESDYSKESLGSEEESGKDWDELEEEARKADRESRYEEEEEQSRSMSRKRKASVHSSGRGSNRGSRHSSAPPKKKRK
UniProt O95619: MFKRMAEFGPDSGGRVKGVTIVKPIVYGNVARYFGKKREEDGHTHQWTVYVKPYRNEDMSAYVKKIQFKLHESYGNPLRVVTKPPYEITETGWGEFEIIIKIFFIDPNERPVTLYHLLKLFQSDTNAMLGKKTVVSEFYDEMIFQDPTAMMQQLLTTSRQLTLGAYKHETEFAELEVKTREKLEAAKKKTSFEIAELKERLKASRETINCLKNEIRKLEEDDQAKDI
UniProt Q9UBL3: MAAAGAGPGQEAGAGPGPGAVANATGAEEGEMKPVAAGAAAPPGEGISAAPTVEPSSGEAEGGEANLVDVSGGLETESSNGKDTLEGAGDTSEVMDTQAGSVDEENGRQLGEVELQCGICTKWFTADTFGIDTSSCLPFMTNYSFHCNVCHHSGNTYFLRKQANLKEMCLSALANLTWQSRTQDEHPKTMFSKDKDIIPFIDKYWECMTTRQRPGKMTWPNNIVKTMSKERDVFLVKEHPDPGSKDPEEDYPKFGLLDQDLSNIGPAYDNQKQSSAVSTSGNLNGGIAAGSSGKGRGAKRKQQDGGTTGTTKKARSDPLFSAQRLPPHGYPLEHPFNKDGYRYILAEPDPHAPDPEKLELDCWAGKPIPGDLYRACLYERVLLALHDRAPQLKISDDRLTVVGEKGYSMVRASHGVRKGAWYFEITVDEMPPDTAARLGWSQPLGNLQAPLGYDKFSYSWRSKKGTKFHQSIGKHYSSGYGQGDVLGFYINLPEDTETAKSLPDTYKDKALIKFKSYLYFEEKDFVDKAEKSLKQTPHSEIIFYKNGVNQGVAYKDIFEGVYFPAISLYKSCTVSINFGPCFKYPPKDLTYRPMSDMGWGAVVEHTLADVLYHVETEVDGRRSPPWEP
UniProt Q9BQA1: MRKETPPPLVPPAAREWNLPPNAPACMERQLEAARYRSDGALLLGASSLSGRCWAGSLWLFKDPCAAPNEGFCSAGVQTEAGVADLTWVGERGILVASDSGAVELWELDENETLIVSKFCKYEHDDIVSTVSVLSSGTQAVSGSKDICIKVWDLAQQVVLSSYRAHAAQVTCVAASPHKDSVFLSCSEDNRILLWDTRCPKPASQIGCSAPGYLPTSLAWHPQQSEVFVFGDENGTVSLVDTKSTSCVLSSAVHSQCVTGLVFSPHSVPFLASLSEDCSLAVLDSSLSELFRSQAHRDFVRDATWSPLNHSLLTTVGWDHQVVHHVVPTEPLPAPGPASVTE
UniProt Q92830: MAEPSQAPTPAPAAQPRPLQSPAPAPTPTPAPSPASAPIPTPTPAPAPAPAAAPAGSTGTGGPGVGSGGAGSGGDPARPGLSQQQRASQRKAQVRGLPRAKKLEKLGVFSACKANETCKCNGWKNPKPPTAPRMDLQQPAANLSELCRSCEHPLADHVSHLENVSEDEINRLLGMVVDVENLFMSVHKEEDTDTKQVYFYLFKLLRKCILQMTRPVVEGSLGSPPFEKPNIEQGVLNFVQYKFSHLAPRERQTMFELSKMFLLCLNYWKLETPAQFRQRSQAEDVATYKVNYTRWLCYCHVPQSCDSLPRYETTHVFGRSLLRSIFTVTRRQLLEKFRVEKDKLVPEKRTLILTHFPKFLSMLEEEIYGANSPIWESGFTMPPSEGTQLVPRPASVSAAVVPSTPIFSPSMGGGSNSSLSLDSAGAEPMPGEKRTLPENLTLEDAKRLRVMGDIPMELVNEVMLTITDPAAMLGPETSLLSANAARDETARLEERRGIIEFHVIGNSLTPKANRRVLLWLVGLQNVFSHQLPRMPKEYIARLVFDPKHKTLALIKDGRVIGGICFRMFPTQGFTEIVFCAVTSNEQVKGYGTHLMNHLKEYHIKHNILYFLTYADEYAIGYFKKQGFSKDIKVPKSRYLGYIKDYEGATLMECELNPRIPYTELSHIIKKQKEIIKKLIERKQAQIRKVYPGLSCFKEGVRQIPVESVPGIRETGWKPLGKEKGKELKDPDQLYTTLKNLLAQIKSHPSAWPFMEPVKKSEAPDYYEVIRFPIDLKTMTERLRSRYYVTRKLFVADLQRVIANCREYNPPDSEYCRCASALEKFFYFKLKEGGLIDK
UniProt Q04206: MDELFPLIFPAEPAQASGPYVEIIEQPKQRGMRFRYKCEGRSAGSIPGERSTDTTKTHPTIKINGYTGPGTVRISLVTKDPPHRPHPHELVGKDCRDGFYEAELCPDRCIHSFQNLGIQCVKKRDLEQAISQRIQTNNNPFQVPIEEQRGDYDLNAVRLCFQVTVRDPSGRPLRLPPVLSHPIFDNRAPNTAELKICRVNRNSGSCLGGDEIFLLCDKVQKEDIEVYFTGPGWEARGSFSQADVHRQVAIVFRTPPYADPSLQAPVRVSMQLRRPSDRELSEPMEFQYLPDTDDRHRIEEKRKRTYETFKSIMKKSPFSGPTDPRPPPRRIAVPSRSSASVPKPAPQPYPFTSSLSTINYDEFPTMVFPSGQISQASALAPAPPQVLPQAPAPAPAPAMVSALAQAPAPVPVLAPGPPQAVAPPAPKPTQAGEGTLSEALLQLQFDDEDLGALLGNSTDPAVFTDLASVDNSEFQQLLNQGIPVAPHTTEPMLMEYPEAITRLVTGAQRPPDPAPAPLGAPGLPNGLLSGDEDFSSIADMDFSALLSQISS
UniProt P40763: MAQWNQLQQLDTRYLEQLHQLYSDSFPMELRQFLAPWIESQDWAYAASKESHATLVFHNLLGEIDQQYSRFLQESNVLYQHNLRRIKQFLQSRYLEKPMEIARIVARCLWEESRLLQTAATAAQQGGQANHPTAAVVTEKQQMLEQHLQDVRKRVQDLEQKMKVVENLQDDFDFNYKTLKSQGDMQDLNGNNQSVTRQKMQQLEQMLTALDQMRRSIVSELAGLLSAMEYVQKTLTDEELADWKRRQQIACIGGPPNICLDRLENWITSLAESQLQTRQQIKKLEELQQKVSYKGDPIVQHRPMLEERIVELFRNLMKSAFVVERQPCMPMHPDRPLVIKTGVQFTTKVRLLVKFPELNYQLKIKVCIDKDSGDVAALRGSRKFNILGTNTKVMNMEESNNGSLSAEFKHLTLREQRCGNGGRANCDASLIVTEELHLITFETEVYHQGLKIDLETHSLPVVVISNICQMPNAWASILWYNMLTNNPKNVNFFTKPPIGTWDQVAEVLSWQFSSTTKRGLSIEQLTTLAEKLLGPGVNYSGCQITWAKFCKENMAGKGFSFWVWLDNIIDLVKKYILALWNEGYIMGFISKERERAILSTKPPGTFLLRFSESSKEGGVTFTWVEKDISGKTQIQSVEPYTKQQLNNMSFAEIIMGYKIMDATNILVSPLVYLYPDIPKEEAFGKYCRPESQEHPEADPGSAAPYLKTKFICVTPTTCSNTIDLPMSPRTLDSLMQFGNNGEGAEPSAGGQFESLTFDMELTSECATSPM

Residue numbers refer to the chain shown, from its start. No constants are given. Whether binding was seen depends on the method and setting. In cells and extracts the contact can be indirect. Some entries that bind do so weakly or less than the wild type. For some of these results: Where a sequence is shown, tags or fusion partners need not be part of it.

For experiment [1], the target named is T1, FLAG-tagged C/EBPβ (Figure 6A, 6B) (UniProt Q05826).
T1 sequence: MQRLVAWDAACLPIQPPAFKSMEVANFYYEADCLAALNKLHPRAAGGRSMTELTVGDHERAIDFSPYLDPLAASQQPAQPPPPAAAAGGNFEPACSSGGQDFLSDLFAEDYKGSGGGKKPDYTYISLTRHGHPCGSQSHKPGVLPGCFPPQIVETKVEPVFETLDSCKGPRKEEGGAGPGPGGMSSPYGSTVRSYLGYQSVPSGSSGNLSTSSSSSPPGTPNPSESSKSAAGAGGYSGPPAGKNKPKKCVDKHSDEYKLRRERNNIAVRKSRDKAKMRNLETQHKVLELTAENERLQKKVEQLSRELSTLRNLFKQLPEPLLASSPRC
Put plainly: co-IP; HEK293T cells; FLAG-tagged C/EBPβ with the MLL/Ash2/Wdr5 complex (Figure 6A) and co-expressed with GFP-tagged Spt16 and SSRP1 (Figure 6B left).

For experiment [2], the target named is T2, FLAG-tagged C/EBPβ R193L (chicken) (UniProt Q05826).
T2 sequence: T1 sequence with R193L
Put plainly: co-IP; FLAG-tagged C/EBPβ constructs expressed in HEK293 (HEK293T) cells and immunoprecipitated; endogenous partners detected by immunoblotting (Figures 4C, 4D, 5B, 6B right). (In general: In western blotting, separated proteins are transferred to a membrane and probed.)

For the next experiment, the target named is T3, FLAG-tagged LAP* C/EBPβ (UniProt Q05826).
T3 sequence: T1 sequence
The experiment is described as above.

For experiment [3], the target named is T4, FLAG-tagged C/EBPβ R60L (chicken) (UniProt Q05826).
T4 sequence: T1 sequence with R60L
Described as above.

For experiment [4], the target named is T5, FLAG-tagged C/EBPβ wild-type (chicken) (UniProt Q05826).
T5 sequence: T1 sequence
Described as above.

Experiment [5] has as its target T6, FLAG-tagged C/EBPβ R60A (chicken) (UniProt Q05826).
T6 sequence: T1 sequence with R60A
The description is as above.

The target of experiment [6] is T1, FLAG-tagged C/EBPβ (Figure 6A, 6B). The description is as above.
The next experiment concerns the target MBD2 (HA-tagged) (UniProt Q9UBB5). Put plainly: co-IP; HEK293T cells; immunoprecipitation of HA-tagged MBD2 or GFP-tagged MBD3, detection by western blot (Figure 6D).
In the next experiment the target is MBD3 (GFDP-tagged) (UniProt O95983). Described as above.
Experiment [7] addresses T7, FLAG-tagged C/EBPβ R193A (chicken) (UniProt Q05826).
T7 sequence: T1 sequence with R193A
The experiment in a line: co-IP; FLAG-tagged C/EBPβ constructs expressed in HEK293 (HEK293T) cells and immunoprecipitated; endogenous partners detected by immunoblotting (Figures 4C, 4D, 5B, 6B right).

For the substance MLL (from UniProt Q03164 1-3969), the binding entry in experiment [1] is listed as “binds”.
As to “transducin-like enhancer protein TLE3 (from UniProt Q04726 1-772)”, the binding result in [2] is “binds”.
Take “DNA methyltransferase-associated protein DMAP1 (from UniProt Q9NPF5 1-467)”: the binding result with FLAG-tagged LAP* C/EBPβ is on record as “binds”; in [3], “binds”; in experiment [4], “binds”; in experiment [5] it was “no binding”.
“endogenous FACT complex (Spt16 and SSRP1) (from UniProt Q9Y5B9 1-1047; Q08945 1-709)”: in experiment [6], the binding entry is reported as “binds”.
With YEATS4 (from UniProt O95619 1-227), the binding result in experiment [3] is listed as “binds”; in experiment [4], “binds”; in experiment [5] it was “no binding”.
Consider “Ash2 (Figure 6A) (from UniProt Q9UBL3 1-628)”, for which the binding result in experiment [1] is reported as “binds”.
As to “WDR77(MEP50)/PRMT5 sub-module (from UniProt Q9BQA1 1-342; O14744 1-637) (complex)”, the binding result in the experiment with MBD2 (HA-tagged) is “binds”; with MBD3 (GFDP-tagged), “no binding”.
For “histone acetyltransferase GCN5 of the SAGA complex (from UniProt Q92830 1-837)”, in the experiment with FLAG-tagged LAP* C/EBPβ, the binding entry is “binds”.
As to “nuclear factor kappa B subunit RelA (from UniProt Q04206 1-551)”, the binding result in [2], in [4] and in experiment [7] was “binds” throughout.
As to “GFP-tagged Spt16 and SSRP1 (FACT complex, co-expressed) (from UniProt Q9Y5B9 1-1047; Q08945 1-709)”, in experiment [1], the binding result is recorded as “binds”.
As for “signal transducer and activator of transcription STAT3 (from UniProt P40763 1-770)”, in the experiment with FLAG-tagged LAP* C/EBPβ, the binding result is on record as “binds”.
